According to PubChem BioAssay AID1347076 (National Center for Advancing Translational Sciences (NCATS), 2019):
Where “and” joins values, the source holds several entries; their conditions need not be identical. Equal values may be shown once. Hit rate of the full screen: of about 400,000 compounds, about 13,000 (3.2%) were called active. The inconclusive results got no clear call from the source; some entries with a clear call stand among them for comparison. Calls follow the shape of the dose curve; as a rule, active = well fitted cell-killing curve with a large enough effect; inconclusive = small, poorly fitted or top-dose-only effect, or effect the other way; inactive = flat fitted curve, though single readings scatter. Where the call is inconclusive, the potency comes from a doubtful curve fit. Where a structure was tested more than once in an assay, its records may differ in their call.

Experiment: qHTS assay for MDR1-selective chemotherapeutics: Primary screen using the drug-selected MDR subline cells KB-V1; also: nearly all actives have a fitted effect of over 60% in size
Details: KB-V1 MDR cells viability, CellTiter-Glo, 72 h; activity change, negative = cytotoxicity: at 46.1 µM (top of the series)
Procedure, shortened: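 Cells of the MDR subline KB-V1 are plated, dosed with compound at multiple concentrations, and incubated 72 h at 37 degrees C; CellTiter-Glo is then added and luminescence read after 10 min.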
% is scaled to controls: 0 for no effect and ±100 for the full control effect; potency is read from the fitted curve at half-maximal effect.

Row | SMILES | Potency | activity change, negative = cytotoxicity
1 | Cc1ccc(NC(=O)c2ccc3c(c2)C(=O)N(c2cc(C)ccc2C)C3=O)nc1 | inconclusive: 0.58 µM [rising, full curve] | 
2 | COc1cc(NC(=O)N2CCc3nc(Nc4cc(Cl)cc(Cl)c4)ncc3C2)cc(OC)c1OC | inconclusive: 16.4 µM [cytotoxic, single point] | 
3 | COc1ccc(-c2noc(CSc3nnc(-c4ccncc4)n3-c3ccc(F)cc3)n2)cc1OC | inconclusive: 23.1 µM [cytotoxic, partial curve, poor fit] | 
4 | COc1ccc(CNC(=O)C2CCC(CNS(=O)(=O)c3ccccc3)CC2)cc1 (stereo unspecified) | inconclusive: 13 µM [cytotoxic, partial curve] | 
5 | CC1=C/C(=N\NC(=S)Nc2cccnc2)CC(C)(C)C1 | inconclusive: 18.4 µM [cytotoxic, single point] | 
6 | COc1ccc(CN(CC(=O)NC2CCCCC2)C(=O)CCCC(=O)Nc2ccccn2)cc1 |  | inactive: 14.3%
7 | O=C(Nc1ccc2c(c1)CCCN2C(=O)c1cccs1)c1c(F)cccc1F | inconclusive: 32.6 µM [cytotoxic, single point] and inconclusive: 20.6 µM [cytotoxic, single point] | 
8 | CC(C)c1ccc(NC(=O)c2ccc3c(c2)CCCN3S(C)(=O)=O)cc1 | inconclusive: 3.66 µM [cytotoxic, full curve, poor fit] | 
9 | COc1ccc(-c2nc(C)c(CCNC(=O)C(=O)Nc3c(C)cccc3C)s2)cc1OC | inconclusive: 3.66 µM [cytotoxic, partial curve, poor fit] | 
10 | Nc1ccc(N2CCOCC2)c(S(=O)(=O)Nc2ccccc2Cl)c1 | inconclusive: 16.4 µM [cytotoxic, single point] | 
11 | O=S(=O)(Nc1cccc2cccnc12)c1ccccc1 | inconclusive: 20.6 µM [cytotoxic, single point] | 
12 | CN1CCN(C(=O)C2=C[C@H](c3csc4ccccc34)C[C@H](OCc3ccc(CO)cc3)O2)CC1 |  | inactive: 9.59%
13 | Cc1ccc(-c2nn(CC(=O)NCc3ccco3)c(=O)c3ccccc23)cc1 | inconclusive: 0.58 µM [cytotoxic, full curve] | 
14 | COc1ccccc1C(=O)Oc1ccccc1C(=O)Nc1ccccc1 |  | inconclusive: 11.8%
15 | CC(C)c1nc(SCC(=O)N2CC(=O)Nc3ccccc32)c2ccccc2n1 | inconclusive: 29.1 µM [cytotoxic, single point] | 
16 | C=CCNC(=O)c1ccccc1NC(=O)c1ccccc1SC | inconclusive: 20.6 µM [cytotoxic, partial curve, poor fit] | 
17 | Clc1ccc(SCCn2ccnc2)cc1 | inconclusive: 29.1 µM [rising, single point] | 
18 | COc1cccc(/C=C/C(=O)c2cccc([N+](=O)[O-])c2)c1 | inconclusive: 16.4 µM [cytotoxic, single point] | 
19 | Cc1cc(S(=O)(=O)N2CCN=C2c2ccccc2)c(C)cc1Cl | inconclusive: 23.1 µM [cytotoxic, partial curve] | 
20 | O=C(O)C/C(=C\c1ccc(N2CCOCC2)c([N+](=O)[O-])c1)c1nc2ccccc2s1 | inconclusive: 29.1 µM [cytotoxic, single point] | 
21 | O=C(CSc1nccc(-c2cccs2)n1)Nc1ccccc1 | inconclusive: 23.1 µM [cytotoxic, single point] | 
22 | O=C(NCc1ccco1)c1cccc2ccccc12 |  | inactive: 29.3%

Row | SMILES | Potency | activity change, negative = cytotoxicity
23 | CC(C)CN1C(=O)C(=Nc2cccnc2)c2ccccc21 | inconclusive: 18.4 µM [cytotoxic, single point] | 
24 | COc1ccc(NCc2nc3ccccc3n2CCOc2ccccc2)cc1 | active: 2.31 µM | 
25 | COc1cc2nc(SCc3c(C)noc3C)n(CCC3=CCCCC3)c(=O)c2cc1OC | inconclusive: 8.2 µM [cytotoxic, partial curve] | 
26 | CC(Sc1c[nH]c2ccccc12)C(=O)O (stereo unspecified) |  | inactive: 0.18%
27 | O=[N+]([O-])c1ccc(OCn2cncn2)cc1 |  | inactive: -6.14%
28 | O=C(Nc1ccc(F)c(Cl)c1)C1CC(=O)n2c(nc3ccccc32)N1 (stereo unspecified) |  | inactive: -6.44%
29 | C=C(CN(C)C)C(=O)c1cc(C)ccc1C | inconclusive: 20.6 µM [cytotoxic, single point] | 
30 | O=C(Nc1ccccc1N1CCN(C(=O)c2ccc(Cl)cc2)CC1)c1ccc2c(c1)OCO2 | inconclusive: 35.5 µM [cytotoxic, single point] | 
31 | O=c1[nH][nH]c2c1C(C1CCCCC1)OC(C1CCCCC1)C2 (stereo unspecified) |  | inactive: -15.8%
32 | CCCCc1nc2ccccc2n2c(-c3ccc(OC)cc3)c3c(=O)n(C)c(=O)n(C)c3c12 | inconclusive: 4.61 µM [cytotoxic, full curve] | 
33 | Cc1cc(C(=O)NC2CCCC2)on1 | inconclusive: 32.6 µM [rising, single point] | 
34 | C/C(N)=C(/C#N)C(=O)COC(=O)c1cc(-c2ccc(Br)cc2)nc2ccccc12 | active: 20.6 µM | 
35 | Cc1ccc(S(=O)(=O)N2CCC(C(=O)OCCOc3cccc(C)c3)CC2)cc1 | inconclusive: 29.1 µM [rising, partial curve, poor fit] | 
36 | N#CCCn1cc(C(=O)Nc2ccccc2Br)c(-c2cc3ccccc3o2)n1 | inconclusive: 23.1 µM [cytotoxic, single point] | 
37 | Cc1cccc(-c2ccc([N+](=O)[O-])cc2CN2CCN(c3ncc(Cc4ccccc4)cn3)CC2)c1 | inconclusive: 20.6 µM [cytotoxic, single point] | 
38 | CC(/C=C/c1ccco1)=N/NC(=O)c1ccc(C)nc1 | inconclusive: 0.731 µM [rising, partial curve, poor fit] | 
39 | COCC#Cc1ccc2c(c1)O[C@@H](CN(C)S(=O)(=O)c1cccc(F)c1)[C@@H](C)CN([C@H](C)CO)S2(=O)=O |  | inactive: -5.52%
40 | COc1cc(OC)c(NC(=O)c2cc3ccccc3cc2O)cc1Cl | inconclusive: 16.4 µM [cytotoxic, partial curve, poor fit] | 
41 | Cc1nc2sccn2c(=O)c1CCN1CCC(=C(c2ccc(F)cc2)c2ccc(F)cc2)CC1 | inconclusive: 2.31 µM [cytotoxic, partial curve, poor fit] | 
42 | CC1CCCCN1S(=O)(=O)c1ccc(C(=O)Nc2ccccc2-c2nc3ccccc3[nH]2)cc1 (stereo unspecified) | active: 23.1 µM | 
43 | COc1ccc2[nH]c(=O)c(CNc3cc(C)ccc3C)cc2c1 |  | inactive: -21.4%
44 | O=C(CSc1ccccc1)Nc1ccc(Cl)c(S(=O)(=O)N2CCOCC2)c1 |  | inconclusive: -41.3% [cytotoxic]

A run of entries from further up, for reference:
Row | SMILES | Potency | activity change, negative = cytotoxicity
17 | Clc1ccc(SCCn2ccnc2)cc1 | inconclusive: 29.1 µM [rising, single point] | 
18 | COc1cccc(/C=C/C(=O)c2cccc([N+](=O)[O-])c2)c1 | inconclusive: 16.4 µM [cytotoxic, single point] | 
19 | Cc1cc(S(=O)(=O)N2CCN=C2c2ccccc2)c(C)cc1Cl | inconclusive: 23.1 µM [cytotoxic, partial curve] | 

Carrying on.

Row | SMILES | Potency | activity change, negative = cytotoxicity
45 | Cc1cccc(-n2ccc(=O)c(C(=O)Nc3ccc(S(=O)(=O)Nc4nccc(C)n4)cc3)n2)c1 | inconclusive: 2.06 µM [rising, full curve] | 
46 | COc1cccc(C(C)(O)c2nc(-c3cc4ccccc4o3)cs2)c1 (stereo unspecified) | inconclusive: 18.4 µM [cytotoxic, single point] | 
47 | COc1ccc(CNC(=O)c2cc(-c3cccc(Cl)c3)on2)cc1 |  | inactive: 15.9%
48 | Cc1cccc(C(O)c2ncc(-c3ccccc3F)[nH]2)c1C (stereo unspecified) | inconclusive: 23.1 µM [cytotoxic, single point] | 
49 | C[C@@H]1CCCCO[C@H](CN(C)C(=O)NC2CCCCC2)[C@@H](C)CN([C@H](C)CO)C(=O)c2cc(NC(=O)c3ccccc3)ccc2O1 |  | inactive: 0%
50 | CCOC(=O)N1CCN(C(=O)CCN2C(=O)/C(=C\c3ccc(OC)c(OC)c3)SC2=S)CC1 | inconclusive: 23.1 µM [rising, partial curve, poor fit] | 
51 | CCCCN1C(=O)/C(=C2/Sc3ccccc3N2C)S/C1=N\c1ncn[nH]1 | inconclusive: 23.1 µM [cytotoxic, single point] | 
52 | CCc1ccc(-c2nc3cc(NC(=O)c4cc5ccccc5cc4OC)ccc3o2)cc1 | inconclusive: 29.1 µM [cytotoxic, single point] | 
53 | Cc1ccc(S(=O)(=O)CCC(=O)OCn2nnc3ccccc3c2=O)cc1 | inconclusive: 18.4 µM [rising, single point] | 
54 | COc1cc(C2CC(=O)N(Cc3ccc(F)cc3)c3ccccc3S2)cc(OC)c1OC (stereo unspecified) | active: 11.6 µM | 
55 | COc1ccccc1NC(=O)C12CC3CC(C1)CC(c1ccc(C)cc1)(C3)C2 | active: 16.4 µM | 
56 | Cc1ccc(-n2ccnc2SCC(=O)c2c(N)n(C3CC3)c(=O)[nH]c2=O)cc1C | inconclusive: 29.1 µM [rising, single point] | 
57 | COc1cc(CNC2CCCC2)cc(Cl)c1OCc1ccccc1F | active: 23.1 µM | 
58 | COc1cc(NC(=O)Cn2ncc(Cl)c(Cl)c2=O)c(C)cc1[N+](=O)[O-] |  | inactive: -23.6%
59 | O=C1c2ccccc2OC2(C=Cc3ccccc3O2)N1Cc1ccccc1 (stereo unspecified) | active: 4.11 µM | 
60 | Nc1nnc(SCC(=O)Nc2ccc3nc(SCC(=O)Nc4ccccc4)sc3c2)s1 | active: 23.1 µM | 
61 | CCCNC(=O)c1ccc(N2CCC3(CC2)CC(c2cccc(Br)c2)=NO3)c(NC(=O)c2c(Cl)cccc2Cl)c1 | inconclusive: 25.9 µM [rising, single point] | 
62 | CCOC(=O)c1cc(C#N)c(N2CCCC2)nc1-c1ccccc1 | inconclusive: 13 µM [cytotoxic, partial curve] | 
63 | CC(=O)N1CCOCC1c1cc(C(=O)Nc2ccccc2)no1 (stereo unspecified) |  | inactive: 1.47%
64 | CC(=O)c1ccc(NC(=O)C(C)n2nc(-c3ccccc3)c3cc(Cl)ccc32)cc1 (stereo unspecified) | inconclusive: 18.4 µM [cytotoxic, single point] | 
65 | COc1ccc(CNC(=O)COC(=O)C(CCSC)N2C(=O)c3ccccc3C2=O)cc1 (stereo unspecified) | inconclusive: 29.1 µM [rising, single point] | 
66 | CNc1nc(Oc2ccc3sc(C)nc3c2)c2sccc2n1 | inconclusive: 29.1 µM [cytotoxic, single point] | 
